# Results are given in words; binding and its absence hold for the method and conditions named. Binding seen in cells or lysates may run through a third protein. Some results given as binding are weak or reduced against the parent protein; the word gives no strength. For some of these results: Where a sequence is shown, tags or fusion partners need not be part of it.
# The chains behind the UniProt entries cited, without tags or fusion partners.
# UniProt Q8K4B0: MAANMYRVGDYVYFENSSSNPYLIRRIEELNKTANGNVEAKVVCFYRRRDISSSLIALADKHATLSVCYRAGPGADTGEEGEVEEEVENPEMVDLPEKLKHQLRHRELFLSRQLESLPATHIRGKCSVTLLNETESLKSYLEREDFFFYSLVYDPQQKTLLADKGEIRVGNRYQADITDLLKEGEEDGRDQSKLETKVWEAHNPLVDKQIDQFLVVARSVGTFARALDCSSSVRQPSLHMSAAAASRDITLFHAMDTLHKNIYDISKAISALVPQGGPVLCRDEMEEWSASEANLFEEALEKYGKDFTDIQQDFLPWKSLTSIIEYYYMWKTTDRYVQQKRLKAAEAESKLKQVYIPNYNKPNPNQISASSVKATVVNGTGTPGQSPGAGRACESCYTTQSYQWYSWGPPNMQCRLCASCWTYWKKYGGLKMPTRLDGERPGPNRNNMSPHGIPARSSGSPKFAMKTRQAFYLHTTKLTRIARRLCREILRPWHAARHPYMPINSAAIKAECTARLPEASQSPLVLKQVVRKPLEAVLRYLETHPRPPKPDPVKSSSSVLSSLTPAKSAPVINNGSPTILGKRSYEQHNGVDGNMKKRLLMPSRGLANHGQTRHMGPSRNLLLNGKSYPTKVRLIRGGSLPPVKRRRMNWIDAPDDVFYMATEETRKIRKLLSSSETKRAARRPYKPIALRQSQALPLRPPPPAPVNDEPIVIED
# UniProt Q14839: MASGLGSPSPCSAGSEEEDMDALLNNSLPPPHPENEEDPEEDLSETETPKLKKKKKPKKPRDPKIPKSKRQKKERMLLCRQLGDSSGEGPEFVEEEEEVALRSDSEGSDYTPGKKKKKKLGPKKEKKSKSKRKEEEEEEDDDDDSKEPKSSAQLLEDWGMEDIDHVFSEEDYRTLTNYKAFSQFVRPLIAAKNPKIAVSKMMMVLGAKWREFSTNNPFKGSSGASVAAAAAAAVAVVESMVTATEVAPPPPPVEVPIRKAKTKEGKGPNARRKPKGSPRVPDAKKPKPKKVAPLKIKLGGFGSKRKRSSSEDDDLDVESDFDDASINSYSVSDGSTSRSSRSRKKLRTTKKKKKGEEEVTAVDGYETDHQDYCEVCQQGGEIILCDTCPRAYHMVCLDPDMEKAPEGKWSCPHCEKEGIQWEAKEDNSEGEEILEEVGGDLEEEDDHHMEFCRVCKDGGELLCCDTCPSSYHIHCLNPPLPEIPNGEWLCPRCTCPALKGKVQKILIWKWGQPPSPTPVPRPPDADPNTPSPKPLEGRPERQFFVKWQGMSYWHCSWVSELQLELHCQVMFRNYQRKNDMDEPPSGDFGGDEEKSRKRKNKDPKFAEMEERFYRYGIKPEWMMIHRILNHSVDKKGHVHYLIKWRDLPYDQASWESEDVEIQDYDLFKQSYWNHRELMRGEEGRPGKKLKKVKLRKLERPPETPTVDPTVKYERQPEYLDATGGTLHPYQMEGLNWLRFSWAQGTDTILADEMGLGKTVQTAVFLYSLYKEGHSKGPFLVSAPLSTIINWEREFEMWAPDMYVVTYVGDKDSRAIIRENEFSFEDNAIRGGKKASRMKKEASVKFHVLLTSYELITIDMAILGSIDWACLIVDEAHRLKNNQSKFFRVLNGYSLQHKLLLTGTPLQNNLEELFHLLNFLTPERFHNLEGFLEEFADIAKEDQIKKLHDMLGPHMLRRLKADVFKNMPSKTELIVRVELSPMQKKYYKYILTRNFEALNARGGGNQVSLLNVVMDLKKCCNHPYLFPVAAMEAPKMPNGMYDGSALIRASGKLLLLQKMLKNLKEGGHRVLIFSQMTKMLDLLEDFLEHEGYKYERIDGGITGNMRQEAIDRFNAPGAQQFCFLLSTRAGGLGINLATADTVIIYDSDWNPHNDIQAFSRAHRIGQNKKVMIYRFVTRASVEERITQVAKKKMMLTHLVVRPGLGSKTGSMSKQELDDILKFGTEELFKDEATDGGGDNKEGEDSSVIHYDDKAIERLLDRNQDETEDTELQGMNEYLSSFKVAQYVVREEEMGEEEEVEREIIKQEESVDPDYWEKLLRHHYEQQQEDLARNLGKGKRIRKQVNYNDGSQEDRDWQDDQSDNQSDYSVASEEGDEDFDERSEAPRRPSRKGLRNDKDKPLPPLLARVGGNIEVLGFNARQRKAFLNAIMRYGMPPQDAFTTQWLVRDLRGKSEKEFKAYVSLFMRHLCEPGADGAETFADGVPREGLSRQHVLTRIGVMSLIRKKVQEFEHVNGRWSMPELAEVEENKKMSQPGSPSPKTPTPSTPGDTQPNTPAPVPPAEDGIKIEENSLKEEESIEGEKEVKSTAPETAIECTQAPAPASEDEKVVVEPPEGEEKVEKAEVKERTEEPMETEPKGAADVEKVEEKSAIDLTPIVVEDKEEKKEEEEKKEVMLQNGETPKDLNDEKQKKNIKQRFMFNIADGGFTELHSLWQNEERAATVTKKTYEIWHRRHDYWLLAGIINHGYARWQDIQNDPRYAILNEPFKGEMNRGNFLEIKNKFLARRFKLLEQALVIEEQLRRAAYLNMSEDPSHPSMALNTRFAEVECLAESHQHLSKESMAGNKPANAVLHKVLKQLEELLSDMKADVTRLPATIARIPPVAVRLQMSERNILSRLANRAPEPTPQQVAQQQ
# UniProt Q92769: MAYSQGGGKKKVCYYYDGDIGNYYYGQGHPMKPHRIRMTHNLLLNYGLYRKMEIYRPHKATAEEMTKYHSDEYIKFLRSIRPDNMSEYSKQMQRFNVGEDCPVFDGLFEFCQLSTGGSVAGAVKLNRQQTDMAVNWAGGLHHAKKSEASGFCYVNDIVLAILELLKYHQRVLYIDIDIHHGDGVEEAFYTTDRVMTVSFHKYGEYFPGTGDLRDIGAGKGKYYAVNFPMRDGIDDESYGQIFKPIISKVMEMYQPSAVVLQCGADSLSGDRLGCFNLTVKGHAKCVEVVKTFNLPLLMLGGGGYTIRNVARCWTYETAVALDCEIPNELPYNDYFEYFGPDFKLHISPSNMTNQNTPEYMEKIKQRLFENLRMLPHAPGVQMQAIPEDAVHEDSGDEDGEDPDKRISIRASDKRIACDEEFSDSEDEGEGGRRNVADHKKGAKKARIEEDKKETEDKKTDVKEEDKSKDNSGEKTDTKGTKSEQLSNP
# T1: GST–PWWP2A (human) (UniProt Q96N64)
# T1 sequence: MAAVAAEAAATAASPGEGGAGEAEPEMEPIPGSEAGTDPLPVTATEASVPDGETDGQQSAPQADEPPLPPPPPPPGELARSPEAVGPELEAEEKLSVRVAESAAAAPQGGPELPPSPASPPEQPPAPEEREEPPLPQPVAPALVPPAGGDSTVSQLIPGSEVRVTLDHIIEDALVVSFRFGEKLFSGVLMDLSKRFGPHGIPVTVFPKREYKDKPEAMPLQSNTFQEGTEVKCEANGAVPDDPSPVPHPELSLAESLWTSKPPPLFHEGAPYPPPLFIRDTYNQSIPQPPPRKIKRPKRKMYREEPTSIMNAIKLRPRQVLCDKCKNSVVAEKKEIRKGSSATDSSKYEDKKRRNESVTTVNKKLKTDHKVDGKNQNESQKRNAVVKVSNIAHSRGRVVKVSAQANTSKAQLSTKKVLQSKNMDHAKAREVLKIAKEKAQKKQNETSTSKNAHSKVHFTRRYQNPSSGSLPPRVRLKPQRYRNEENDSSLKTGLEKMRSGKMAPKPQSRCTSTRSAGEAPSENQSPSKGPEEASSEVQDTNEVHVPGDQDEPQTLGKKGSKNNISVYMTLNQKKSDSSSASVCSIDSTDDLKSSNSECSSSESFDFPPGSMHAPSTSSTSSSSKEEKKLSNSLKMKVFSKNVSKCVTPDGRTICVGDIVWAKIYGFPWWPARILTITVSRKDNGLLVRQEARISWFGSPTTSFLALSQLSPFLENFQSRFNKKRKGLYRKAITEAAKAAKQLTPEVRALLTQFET
# T2: FLAG-PWWP2A (human), Q96N64
# T2 chain: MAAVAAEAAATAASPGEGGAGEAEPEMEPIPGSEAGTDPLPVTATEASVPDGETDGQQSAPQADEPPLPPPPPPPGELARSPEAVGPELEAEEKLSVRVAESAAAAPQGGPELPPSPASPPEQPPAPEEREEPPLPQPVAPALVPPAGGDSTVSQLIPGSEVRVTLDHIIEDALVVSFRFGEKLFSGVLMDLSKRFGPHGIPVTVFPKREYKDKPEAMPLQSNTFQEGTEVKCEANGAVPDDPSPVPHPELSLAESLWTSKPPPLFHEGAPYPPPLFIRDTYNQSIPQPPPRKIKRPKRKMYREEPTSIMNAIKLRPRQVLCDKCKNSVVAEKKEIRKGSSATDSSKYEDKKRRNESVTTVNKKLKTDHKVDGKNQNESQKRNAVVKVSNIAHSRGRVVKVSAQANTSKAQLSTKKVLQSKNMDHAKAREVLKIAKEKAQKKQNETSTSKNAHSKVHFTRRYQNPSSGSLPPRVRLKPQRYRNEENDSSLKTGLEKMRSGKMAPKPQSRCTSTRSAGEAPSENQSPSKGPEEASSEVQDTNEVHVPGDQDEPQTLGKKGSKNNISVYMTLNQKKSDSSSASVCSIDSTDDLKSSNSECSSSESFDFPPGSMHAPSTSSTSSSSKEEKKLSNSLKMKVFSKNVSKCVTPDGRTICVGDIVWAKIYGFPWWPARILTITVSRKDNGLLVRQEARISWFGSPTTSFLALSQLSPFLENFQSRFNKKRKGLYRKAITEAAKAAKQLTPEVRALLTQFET
# Key:
# GST–PWWP2A (human) = biological target: T1, GST–PWWP2A (human); experiment: pull-down; GST proteins on glutathione beads incubated overnight at 4 °C with S1 mononucleosomes from 1 x 10^7 HK cells; washes with 150 or 300 mM NaCl; immunoblot; only the target purified
# [1] = biological target: MTA1–FLAG (endogenously tagged, mESC) (mouse (endogenous in mESC)) (UniProt Q8K4B0); experiment: co-IP; mESC nuclear extract (200 µg), antibody on Protein G-Sepharose overnight at 4 °C, washes with 150 and 300 mM NaCl, immunoblot
# [2] = biological target: T2, FLAG-PWWP2A (human), Q96N64; experiment: co-IP; as a8, but cells co-expressing HA-MTA2 in place of HA-MTA1; conditions: remark: other sources report otherwise
binding (GST–PWWP2A (human)),Molecule,further results
no binding,CHD4 (from UniProt Q14839 1-1912) (enzyme),
binds,HDAC2 (from UniProt Q92769 1-488) (enzyme),
,"PWWP2A (endogenous, mESC) (protein, UniProt Q69Z61 1-730) MAAVAAEAAATAASPGEGGAGEAEPELEPIPGSEAGTPLPVTATEAAVPDGEADGRQSAPQADEQPLPPPPPPPPPGELADSSEAEEAKPPEPAAVPVSPPEQPPAAPEQPEDAPRPPPAPALVPPAGGDSAVSHLIPGSEVRVTLDHIIEDALVVSFRLGEKLFSGVLMDLSKRFGPHGIPVTVFPKREYKDKPDAMQLQSTTFQEGIEVKQEVNGAVPDDLSPVPPPERLWASKPPPLFHEGAPYPPPLFIRDTYNQSIPQPPPRKIKRPKRKMYREEPTSIMNAIKLRPRQVLCDKCKNSVVAEKKEIRKGSSDSSRYEDKKRRNDSVATVNKKLKTDHKVDGKNQNESQRRNTVVRVSSIAHSRGRVVKVSAQANTSKAQLNTKKVLQSKNMDHAKAREVLKIAKEKAQKKQSETSTSKTAHAKVHFTRRYQSPSSGSLPPRVRLKPQRYRNEENDSSLKTGLEKIRSGKLAPKPQSRCTSTRSAGEAPSEKPSPSEGPEESAGEVQDTSRVRVPGEQEELRMLGKKGSKSSISVYLTLNQETSDSSSASVCSIDSMDDLKSSNSECSSSESFVFPPGCMHAPSASSTSTSFSSKEENSLRNSLKMKIFSKNVSKCITPDGRTICVGDIVWAKIYGFPWWPARILTITVSRKDNGLLARQEARISWFASPTTSSLALSQLSPFLENFQLRFNKKRKGLYRRAITEAAKAAKQLTPEVRALLTQFET",binding [1]: binds
,"HA-MTA2, Q9R190 1-668 (protein) MAANMYRVGDYVYFENSSSNPYLVRRIEELNKTANGNVEAKVVCLFRRRDISSSLNSLADSNAREFEEESKQPGVSEQQRHQLKHRELFLSRQFESLPATHIRGKCSVTLLNETDILNQYLDKEDCFFYSLVFDPVQKTLLADQGEIRVGCKFQAEIPDRLAEGESDNRNQQKMEMKVWDPDNPLTDRQIDQFLVVARAVGTFARALDCSSSIRQPSLHMSAAAASRDITLFHAMDTLQRNGYDLAKAMSTLVPQGGPVLCRDEMEEWSASEAMLFEEALEKYGKDFNDIRQDFLPWKSLASIVQFYYMWKTTDRYIQQKRLKAAEADSKLKQVYIPTYTKPNPNQIISVGSKPGMNGAGFQKGLTCESCHTTQSAQWYAWGPPNMQCRLCASCWIYWKKYGGLKTPTQLEGAARGTTEPHSRGHLSRPEAQSLSPYTTSANRAKLLAKNRQTFLLQTTKLTRLARRMCRDLLQPRRAARRPYAPINANAIKAECSIRLPKAAKTPLKIHPLVRLPLATIVKDLVAQAPLKPKTPRGTKTPINRNQLTQNRGLGGIMVKRSYETMAGAGVPFSANGRPLASGIRSSSQPAAKRQKLNPADAPNPVVFVATKDTRALRKALTHLEMRRAARRPNLPLKVKPTLMTVRPPVPLPASSHPASTNEPIVLED",binding [2]: no binding

# From publication PMC6191444
